Source: PMC4139307, “Transforming Growth Factor-β1 Signaling Represses Testicular Steroidogenesis through Cross-Talk with Orphan Nuclear Receptor Nur77”
The exact form of at least one protein or probe is not confirmed. Weaker means in comparison with the reference protein, sequence or condition of that experiment.

Chains of the proteins cited; added tags and fusions are not shown.
UniProt P12813, whole entry: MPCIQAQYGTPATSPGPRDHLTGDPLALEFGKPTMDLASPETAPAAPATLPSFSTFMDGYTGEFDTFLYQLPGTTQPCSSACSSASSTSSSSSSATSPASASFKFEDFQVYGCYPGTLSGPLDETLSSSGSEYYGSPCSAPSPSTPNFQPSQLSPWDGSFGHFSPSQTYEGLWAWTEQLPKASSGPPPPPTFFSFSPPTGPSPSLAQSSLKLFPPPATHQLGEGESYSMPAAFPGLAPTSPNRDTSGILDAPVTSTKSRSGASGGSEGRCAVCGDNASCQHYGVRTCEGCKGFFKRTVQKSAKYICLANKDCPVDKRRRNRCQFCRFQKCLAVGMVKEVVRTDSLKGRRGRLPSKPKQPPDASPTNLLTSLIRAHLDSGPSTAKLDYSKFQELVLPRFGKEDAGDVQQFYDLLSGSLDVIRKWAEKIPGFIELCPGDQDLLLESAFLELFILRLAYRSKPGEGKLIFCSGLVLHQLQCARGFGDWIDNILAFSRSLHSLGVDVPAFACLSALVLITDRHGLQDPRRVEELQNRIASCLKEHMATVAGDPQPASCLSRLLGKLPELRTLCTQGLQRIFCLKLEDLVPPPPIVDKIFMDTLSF

Biological target: GST-Nur77 (UniProt P12813)
Assay: EMSA
Settings: increasing GST-Smad3, complex eliminated dose-dependently; recombinant protein; protein details: GST; label: 32P (alpha-32P dCTP labeling)

GGGGCTCGTGCGAAAAGGTCAAGCGCTA (double strand) [NBRE oligonucleotide]
binding result: binds more weakly
